Record: PubChem BioAssay AID1259405 (NCATS, 2018)

Test: 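Mouse-designed siRNAs used to find CHO productivity engineering targets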 (primary screen)
Cell system: Chinese hamster CHO-K1 ovary cells with stable secreted eGFP expression
Reagents: single siRNA against mouse genes, 0.8 pmol siRNA per well (2 µl of 400 nM stock)
Duration: 3 days
Measured: 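Per-well intracellular GFP measured by laser scanning cytometry, plus viability from ATP luminescence, each relative to plate median of non-targeting control wells, in %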
Direction: GFP, % of control: higher = more GFP per well, higher productivity; viability (ATP), % of control: higher = more viable cells (more ATP)
Rule for the call: 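Called active when intracellular GFP, relative to negative control, is at or above 120%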
Shown is a random part of about 50,000 reagents. About 4,000 of them (8%) were called active. 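Mouse siRNA library applied to hamster cells; one well for each siRNA.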 Reagents against one gene are numbered here. No sequences are given here.

The opening 2 records, ahead of the listing:
gene knocked down	siRNA no.	GFP, % of control	viability (ATP), % of control	activity call
Ssu2	1	85.4	98.4	inactive
Ssu2	2	67.4	40.3	inactive

The list itself, from the start:
gene knocked down	siRNA no.	GFP, % of control	viability (ATP), % of control	activity call
Ssu2	1	85.4	98.4	inactive
Ssu2	2	67.4	40.3	inactive
Ssu2	3	97	99.8	inactive
Cdh16	1	69.4	65	inactive
Cdh16	2	36.2	66.5	inactive
Cdh16	3	59.5	66.4	inactive
Nodal	1	75.4	41.3	inactive
Nodal	2	80.9	49	inactive
Nodal	3	135	79	active
Azin1	1	85.8	125	inactive
Azin1	2	112	85.2	inactive
Oog2	1	77.3	75	inactive
Oog2	2	85.4	73.9	inactive
Oog2	3	58.5	53.8	inactive
Trav3-3	1	38.9	33.9	inactive
Trav3-3	2	82.7	119	inactive
Trav3-3	3	83.3	97.9	inactive
Zscan12	1	71.1	34.6	inactive
Zscan12	2	67.1	62.5	inactive
Lad1	1	63.8	79	inactive
Lad1	2	90.6	76.9	inactive
Lad1	3	106	41.1	inactive
Sec23ip	1	109	106	inactive
Sec23ip	2	80.7	77.3	inactive
Sec23ip	3	92.7	106	inactive
Rsph6a	1	108	67	inactive
Rsph6a	2	49.2	72.8	inactive
Rsph6a	3	61.9	74.1	inactive
Hoxa6	1	71	62	inactive
Hoxa6	2	100	69.9	inactive
Hoxa6	3	72.1	103	inactive
Tmem114	1	20.9	12.6	inactive
Tmem114	2	52.6	25.1	inactive
Tmem114	3	47.6	39.3	inactive
